Source: article PMC9967580
No constants are given. Whether binding was seen depends on the method and setting. Binding calls can cover weak binding; strength is not graded here. Tags and fused reporters may be left off the sequences shown.

The substances below were run against T1, GAL4-BD-REV (REVOLUTA fused to the GAL4 DNA-binding domain) (Arabidopsis thaliana) (UniProt Q9SE43) (assay: two-hybrid; Matchmaker Gold Yeast Two-Hybrid System; bait as GAL4-BD fusion (pGBKT7) in strain Y2H Gold, prey as GAL4-AD fusion (pGADT7) in strain Y187, mated; serial 1:10 dilutions spotted on DDO control and selective media of increasing stringency (TDO, DDO/X/AbA, QDO, QDO/X, QDO/X/AbA); growth after four to five days at 30 °C).
T1 sequence: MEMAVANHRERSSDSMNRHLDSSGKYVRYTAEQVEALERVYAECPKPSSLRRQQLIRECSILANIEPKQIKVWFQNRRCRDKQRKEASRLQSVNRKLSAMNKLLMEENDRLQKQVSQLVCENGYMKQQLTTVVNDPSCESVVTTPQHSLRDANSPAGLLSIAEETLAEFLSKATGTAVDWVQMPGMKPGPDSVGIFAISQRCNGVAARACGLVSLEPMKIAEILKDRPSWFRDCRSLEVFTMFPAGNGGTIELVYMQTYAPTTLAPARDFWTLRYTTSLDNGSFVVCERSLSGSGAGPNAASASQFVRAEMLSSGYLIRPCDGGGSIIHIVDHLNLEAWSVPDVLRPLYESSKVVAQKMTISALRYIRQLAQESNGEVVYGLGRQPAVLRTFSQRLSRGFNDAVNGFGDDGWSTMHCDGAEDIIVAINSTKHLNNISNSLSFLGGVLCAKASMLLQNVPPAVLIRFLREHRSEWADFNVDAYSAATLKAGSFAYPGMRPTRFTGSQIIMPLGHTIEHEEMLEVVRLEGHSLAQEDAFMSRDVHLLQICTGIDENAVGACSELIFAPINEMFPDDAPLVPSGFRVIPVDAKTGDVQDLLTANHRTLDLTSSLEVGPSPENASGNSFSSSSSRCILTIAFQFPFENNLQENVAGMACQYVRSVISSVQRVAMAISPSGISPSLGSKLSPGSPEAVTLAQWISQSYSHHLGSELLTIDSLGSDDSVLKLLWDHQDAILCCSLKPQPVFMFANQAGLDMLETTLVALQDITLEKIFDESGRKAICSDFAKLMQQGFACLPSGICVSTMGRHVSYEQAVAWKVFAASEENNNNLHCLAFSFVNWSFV

binding, binds:
GAL4-AD-JAZ1 (Arabidopsis thaliana)
GAL4-AD-JAZ2 (Arabidopsis thaliana)
GAL4-AD-JAZ5 (Arabidopsis thaliana)
